Test results: patent publication US6645916B1, “2,4-diamino-1,3,5-triazines, their preparation and their use as herbicides and plant growth regulators” (Hoechst Schering AgrEvo GmbH, priority 1997, dated 2003)
Some results were stated once for a whole list of compounds, not compound by compound.

Tests used:
[1] = tested on: harmful plants which are typical for rice crops, for example Cyperus monti, Eleocharis acicularis, Echinochloa crus-galli and Sagittaria pygmaea; test: Action on weeds in rice (paddy rice conditions, visual rating); type: in vivo, typical rice weeds (gramineous and broad-leaved); details: poured into the dammed water, different dosages, about three weeks after application, by comparison with untreated controls
[2] = tested on: harmful plants such as Sorghum halepense, Digitaria adscendens, Setaria pumila, Avena fatua, Galium aparine, Polygonum persicaria, Veronica persica, Amaranthus …; test: Post-emergence action against weeds (greenhouse pot test, visual rating); type: in vivo, monocotyledonous and dicotyledonous weeds; details: applied post-emergence at the three-leaf stage at a rate of 1.25 kg or less of active substance per hectare, about 3 to 4 weeks, by comparison with untreated controls
[3] = tested on: harmful plants such as Stellaria media, Matricaria inodora, Sorghum halepense, Digitaria adscendens, Setaria pumila, Avena fatua, Galium aparine, Polygonum …; test: Preemergence action against weeds (greenhouse pot test, visual rating); type: in vivo, monocotyledonous or dicotyledonous weed plants; details: applied pre-emergence at a rate of 1.25 kg of active substance per hectare, 3 to 4 weeks, by comparison with untreated controls

Row | Compound | herbicidal activity (visual rating of the damage to the plants) [1] | herbicidal activity (visual rating) [2] | herbicidal activity (visual rating of damage to the plants or negative effect on emergence) [3]
1 | CCC(COc1cccc(F)c1C)Nc1nc(N)nc(C(C)(C)F)n1 (stereo not drawn) [Example 306a] | very good herbicidal activity | herbicidal activity | herbicidal activity
2 | CCC(COc1cc(F)ccc1C)Nc1nc(N)nc(C(C)(C)F)n1 (stereo not drawn) [Example 307a] | very good herbicidal activity | herbicidal activity | herbicidal activity
3 | CCC(COc1cc(F)cc(OC)c1)Nc1nc(N)nc(C(C)(C)F)n1 (stereo not drawn) [Example 314] | very good herbicidal activity | herbicidal activity | herbicidal activity
4 | CCC(COc1cccc(Oc2ccccc2)c1)Nc1nc(N)nc(C(C)(C)F)n1 (stereo not drawn) [Example 322] | very good herbicidal activity | herbicidal activity | herbicidal activity
5 | CCC(COc1cc(Cl)cc(OC)c1)Nc1nc(N)nc(C(C)(C)F)n1 (stereo not drawn) [Example 332] | very good herbicidal activity | herbicidal activity | herbicidal activity
6 | CCC(COc1cc(Br)cc(C(F)(F)F)c1)Nc1nc(N)nc(C(C)(C)F)n1 (stereo not drawn) [Example 342] | very good herbicidal activity | herbicidal activity | herbicidal activity
7 | CCC(COc1cc(OC)cc(C(F)(F)F)c1)Nc1nc(N)nc(C(C)(C)F)n1 (stereo not drawn) [Example 344] | very good herbicidal activity | herbicidal activity | herbicidal activity
8 | CCC(COc1cccc(OC(F)(F)F)c1)Nc1nc(N)nc(C(C)(C)F)n1 (stereo not drawn) [Example 353] | very good herbicidal activity | herbicidal activity | herbicidal activity
9 | CCC(COc1cccc(OC(F)(F)C(F)F)c1)Nc1nc(N)nc(C(C)(C)F)n1 (stereo not drawn) [Example 362] | very good herbicidal activity | herbicidal activity | herbicidal activity
10 | CCC(COc1ccccc1)Nc1nc(N)nc(C(C)(C)F)n1 (stereo not drawn) [Example 364] | very good herbicidal activity | herbicidal activity | herbicidal activity
11 | CCC(COc1cccc(C)c1)Nc1nc(N)nc(C(C)(C)F)n1 (stereo not drawn) [Example 365] | very good herbicidal activity | herbicidal activity | herbicidal activity
12 | CCC(COc1cc(C)cc(C)c1)Nc1nc(N)nc(C(C)(C)F)n1 (stereo not drawn) [Example 366] | very good herbicidal activity | herbicidal activity | herbicidal activity
13 | CCC(COc1cccc(F)c1)Nc1nc(N)nc(C(C)(C)F)n1 (stereo not drawn) [Example 369] | very good herbicidal activity | herbicidal activity | herbicidal activity
14 | CCC(COc1cc(F)cc(F)c1)Nc1nc(N)nc(C(C)(C)F)n1 (stereo not drawn) [Example 370] | very good herbicidal activity | herbicidal activity | herbicidal activity
15 | CCC(COc1cccc(C(F)(F)F)c1)Nc1nc(N)nc(C(C)(C)F)n1 (stereo not drawn) [Example 371] | very good herbicidal activity | herbicidal activity | herbicidal activity
16 | CCC(COc1cccc(OC)c1)Nc1nc(N)nc(C(C)(C)F)n1 (stereo not drawn) [Example 372] | very good herbicidal activity | herbicidal activity | herbicidal activity
17 | CCC(COc1cc(OC)cc(OC)c1)Nc1nc(N)nc(C(C)(C)F)n1 (stereo not drawn) [Example 373] | very good herbicidal activity | herbicidal activity | herbicidal activity

Row | Compound | herbicidal activity (visual rating of the damage to the plants) [1] | herbicidal activity (visual rating) [2] | herbicidal activity (visual rating of damage to the plants or negative effect on emergence) [3]
18 | CC(C)C(COc1ccccc1)Nc1nc(N)nc(C(C)(C)F)n1 (stereo not drawn) [Example 380] | very good herbicidal activity | herbicidal activity | herbicidal activity
19 | Cc1cccc(OCC(Nc2nc(N)nc(C(C)(C)F)n2)C(C)C)c1 (stereo not drawn) [Example 381] | very good herbicidal activity | herbicidal activity | herbicidal activity
20 | Cc1cc(C)cc(OCC(Nc2nc(N)nc(C(C)(C)F)n2)C(C)C)c1 (stereo not drawn) [Example 382] | very good herbicidal activity | herbicidal activity | herbicidal activity
21 | CC(C)C(COc1cccc(Cl)c1)Nc1nc(N)nc(C(C)(C)F)n1 (stereo not drawn) [Example 384] | very good herbicidal activity | herbicidal activity | herbicidal activity
22 | CC(C)C(COc1cccc(I)c1)Nc1nc(N)nc(C(C)(C)F)n1 (stereo not drawn) [Example 386] | very good herbicidal activity | herbicidal activity | herbicidal activity
23 | CC(C)(F)c1nc(N)nc(NC(COc2ccccc2)C2CC2)n1 (stereo not drawn) [Example 405] | very good herbicidal activity | herbicidal activity | herbicidal activity
24 | Cc1cccc(OCC(Nc2nc(N)nc(C(C)(C)F)n2)C2CC2)c1 (stereo not drawn) [Example 406] | very good herbicidal activity | herbicidal activity | herbicidal activity
25 | CC(C)(F)c1nc(N)nc(NC(COc2cccc(F)c2)C2CC2)n1 (stereo not drawn) [Example 410] | very good herbicidal activity | herbicidal activity | herbicidal activity
26 | CC(C)(F)c1nc(N)nc(NC(COc2cccc(Cl)c2)C2CC2)n1 (stereo not drawn) [Example 411] | very good herbicidal activity | herbicidal activity | herbicidal activity
27 | COc1cccc(OCC(Nc2nc(N)nc(C(C)(C)F)n2)C2CC2)c1 (stereo not drawn) [Example 414] | very good herbicidal activity | herbicidal activity | herbicidal activity
28 | CC(C)(F)c1nc(N)nc(NC(COc2cc(F)cc(F)c2)C2CC2)n1 (stereo not drawn) [Example 415] | very good herbicidal activity | herbicidal activity | herbicidal activity
29 | COc1cc(Cl)cc(OCC(Nc2nc(N)nc(C(C)(C)F)n2)C2CC2)c1 (stereo not drawn) [Example 427] | very good herbicidal activity | herbicidal activity | herbicidal activity
30 | CC(COc1cccc(Cl)c1)Nc1nc(N)nc(C(C)(C)Cl)n1 (stereo not drawn) [Example 455] | very good herbicidal activity | herbicidal activity | herbicidal activity
31 | Cc1cc(Cl)cc(OCC(C)Nc2nc(N)nc(C(C)(C)Cl)n2)c1 (stereo not drawn) [Example 463] | very good herbicidal activity | herbicidal activity | herbicidal activity
32 | Cc1cc(I)cc(OCC(C)Nc2nc(N)nc(C(C)(C)Cl)n2)c1 (stereo not drawn) [Example 465] | very good herbicidal activity | herbicidal activity | herbicidal activity
33 | CC(COc1cccc(C#N)c1)Nc1nc(N)nc(C(C)C)n1 (stereo not drawn) [Example 487] | very good herbicidal activity | herbicidal activity | herbicidal activity
